In publication PMC11872463, “Identification of a group of 9-amino-acridines that selectively downregulate regulatory T cell functions through FoxP3” (iScience, 2025):
The exact form of at least one protein or probe is not confirmed. For part of these data: A weaker result is weaker than the reference pair of the same experiment. At least one verdict rests on a figure or table, not on a statement of the authors.

The chains behind the UniProt entries cited, without tags or fusion partners. Residues count along the entry.
UniProt Q9BZS1, 182-421, stated change not applied: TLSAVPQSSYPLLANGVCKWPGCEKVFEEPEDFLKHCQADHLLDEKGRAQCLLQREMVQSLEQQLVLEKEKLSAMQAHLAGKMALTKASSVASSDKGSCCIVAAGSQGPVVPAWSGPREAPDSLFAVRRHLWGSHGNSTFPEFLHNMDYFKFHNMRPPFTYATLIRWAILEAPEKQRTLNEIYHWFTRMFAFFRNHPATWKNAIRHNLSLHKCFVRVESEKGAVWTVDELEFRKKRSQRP

What was measured:
[1] = target: His-FoxP3-ΔN (Homo sapiens) (UniProt Q9BZS1); test: AlphaScreen; conditions: 5'-biotin on strand 1, AlphaScreen: room temperature, buffer composition not stated, recombinant protein, residues 182-421, protein details: His (pET-30a), label: biotin
[2] = target: His-FoxP3-ΔN (Homo sapiens) (UniProt Q9BZS1); test: EMSA; conditions: EMSA: 10 mM Tris pH 7.5, 100 mM KCl, 1 mM EDTA, 0.1 mM DTT, 5% glycerol, 0.010 mg/mL BSA, room temperature 30 min, recombinant protein, residues 182-421, protein details: His (pET-30a)

Row | Sequence | IC50 ([1]; MP4, IC50 is of the compound inhibiting protein-DNA binding) [nM] | binding result ([1]; no compound, protein:DNA 2:1) | IC50 ([1]; quinacrine (QDD), IC50 is of the compound inhibiting protein-DNA binding) [nM] | binding result ([2]; MP4, concentration-dependent interference) | binding result ([2]; no compound, 3 ug protein, 20 nM DNA) | binding result ([2]; quinacrine (QDD), concentration-dependent interference)
1 | TGACAGTCAGCAAGGTAAACAAGAGTAAACAAGTCCTGAGTCAGT (double strand) [AlphaScreen FoxP3 DNA] | 370 | binds | 2000 |  |  | 
2 | AGATAAACAAGTGTAAACAAT (double strand) [DRE3] |  |  |  | binds more weakly | binds | binds more weakly
